In the supplement of paper PMC3682954:
Several values for one entry are separate records, joined by “and”; a condition that tells them apart may be missing. Identical values can stand only once. Counter-ions that a name gives are not always drawn. ± gives the standard deviation of the averaged measurements. This is one part of the list. Single values are uncertain, as repeats are few or missing.

Test system: RAW 264.7
Test: HMGB1-induced TNF-alpha production relative to HMGB1-stimulated control; higher = more TNF-alpha secretion (less inhibition)
Settings: stimulus: HMGB1 5 ug/ml, 18 h
[1] = compound concentration: 1 ug/ml

| SMILES | HMGB1-induced TNF-alpha production (compound concentration: 3 uM) | HMGB1-induced TNF-alpha production [1] [%] |
| --- | --- | --- |
| CC1(C)OC(=O)NC1=O | 75.9% | – |
| CC1(C)OC(=O)NC1=O [Dimethadione] | 126% | – |
| N=C(N)NCC1COC2(CCCCC2)O1 (stereo unspecified) [Guanadrel sulfate] | 103% | – |
| CCC[C@H](N[C@@H](C)C(=O)N1[C@H](C(=O)O)C[C@@H]2CCCC[C@@H]21)C(=O)OCC [Perindopril] | 90.7% | – |
| CCC[C@H](N[C@@H](C)C(=O)N1[C@H](C(=O)O)C[C@@H]2CCCC[C@@H]21)C(=O)OCC | 96.6% | – |
| Cc1cnc(=O)[nH]c1N [5-Methylcytosine hydrochloride] | – | 82.2 |
| Cn1nnnc1SCC1=C(C(=O)O)N2C(=O)[C@@H](NC(=O)[C@H](O)c3ccccc3)[C@H]2SC1 [Cefamandole sodium salt] | 103% | – |
| Cn1nnnc1SCC1=C(C(=O)O)N2C(=O)[C@@H](NC(=O)[C@H](O)c3ccccc3)[C@H]2SC1 | 77.9% | – |
| Nc1ccc(C(=O)NCC(=O)O)cc1 [Aminohippuric acid] | 93.4% | – |
| Nc1ccc(C(=O)NCC(=O)O)cc1 | 110% | – |
| COc1ccc(NS(=O)(=O)c2ccc(N)cc2)nn1 | 84.7% | – |
| COc1ccc(NS(=O)(=O)c2ccc(N)cc2)nn1 [Sulfamethoxypyridazine] | 97.4% | – |
| OC[C@H]1O[C@@H](Oc2ccc(O)cc2)[C@H](O)[C@@H](O)[C@@H]1O [Arbutin] | 101% | – |
| Nc1ccc(S(=O)(=O)c2ccc(N)cc2)cc1 [Dapsone] | 69.8% | – |
| Nc1ccc(S(=O)(=O)c2ccc(N)cc2)cc1 | 85.7% | – |
| OCCN1CCN(CCCN2c3ccccc3Sc3ccc(Cl)cc32)CC1 [Perphenazine] | 75.7 ± 42% | – |
| OCCN1CCN(CCCN2c3ccccc3Sc3ccc(Cl)cc32)CC1 | 63.3% | – |
| CN(C)CCc1c[nH]c2ccc(Cn3cncn3)cc12 | 74.5 ± 5.1% | – |
| NCCCCCCCCCCN [1,10-Diaminodecane] | 80.6% | – |
| O=c1oc(Cl)c(Cl)c2ccccc12 [3,4-Dichloroisocoumarin] | 90% | – |

| SMILES | HMGB1-induced TNF-alpha production (compound concentration: 3 uM) | HMGB1-induced TNF-alpha production [1] [%] |
| --- | --- | --- |
| N[C@H]1C(O)O[C@H](CO)[C@@H](O)[C@@H]1O (stereo partly specified) | 87% | – |
| C=C1C[C@H]2[C@@H]3C=C(C)C4=CC(=O)CC[C@]4(C)[C@H]3CC[C@]2(C)[C@@]1(OC(C)=O)C(C)=O [Melengestrol acetate] | 75.3% | – |
| C=C1C[C@H]2[C@@H]3C=C(C)C4=CC(=O)CC[C@]4(C)[C@H]3CC[C@]2(C)[C@@]1(OC(C)=O)C(C)=O [Melengestrol Acetate] | 72.6% | – |
| C=C1C[C@H]2[C@@H]3C=C(C)C4=CC(=O)CC[C@]4(C)[C@H]3CC[C@]2(C)[C@@]1(OC(C)=O)C(C)=O | 52.9% | – |
| N=C(N)NC(=N)N1CCOCC1 [Moroxydine HCl] | 95.9% | – |
| N=C(N)NC(=N)N1CCOCC1 | 84.7% | – |
| CC(=O)Oc1cccc2c1C(=O)c1c(OC(C)=O)cc(C(=O)O)cc1C2=O [Diacerein] | 120% | – |
| CC(=O)Oc1cccc2c1C(=O)c1c(OC(C)=O)cc(C(=O)O)cc1C2=O | 81.2% | – |
| Cc1ncc(CSSCc2cnc(C)c(O)c2CO)c(CO)c1O | 102% | – |
| CC(C)NC[C@@H](O)COc1cccc2ccccc12 | 89.2% | – |
| CC(C)NC[C@@H](O)COc1cccc2ccccc12 [(R)-Propranolol hydrochloride] | 120% | – |
| CCc1cn([C@H]2C[C@H](O)[C@@H](CO)O2)c(=O)[nH]c1=O | 107% | – |
| CCc1cn([C@H]2C[C@H](O)[C@@H](CO)O2)c(=O)[nH]c1=O [5-Ethyl-2'-deoxyuridine ; Edoxudine] | – | 71.1 |
| CCN(CC)CCc1nc(-c2ccccc2)no1 [Oxalamine citrate salt] | 105% | – |
| CCN(CC)CCc1nc(-c2ccccc2)no1 | 57.1% | – |
| CC(C)NCC(O)c1ccc(O)c(O)c1 (single isomer, unassigned; (+)) [(+)-Isoproterenol (+)-bitartrate salt] | 40.5% | – |
| CNCC(O)c1ccc(OC(=O)C(C)(C)C)c(OC(=O)C(C)(C)C)c1 (stereo unspecified) [Dipivefrin hydrochloride] | 57.6% | – |
| Nc1ncnc2c1c(-c1ccc(Oc3ccccc3)cc1)cn2C1CCCC1 | 76% | – |
| Cc1c(N(C)CS(=O)(=O)O)c(=O)n(-c2ccccc2)n1C [Dipyrone] | 95.9% | – |
| Cc1c(N(C)CS(=O)(=O)O)c(=O)n(-c2ccccc2)n1C | 85% | – |

| SMILES | HMGB1-induced TNF-alpha production (compound concentration: 3 uM) | HMGB1-induced TNF-alpha production [1] [%] |
| --- | --- | --- |
| Nc1nc2c(nc(Br)n2[C@@H]2OC(CO)C(O)C2O)c(=O)[nH]1 (stereo partly specified) | – | 84.2 |
| CN(C)[C@@H]1C(O)=C(C(=O)NCN2CCCC2)C(=O)[C@@]2(O)C(O)=C3C(=O)c4c(O)cccc4[C@@](C)(O)[C@H]3C[C@@H]12 | 97.9 ± 10% | – |
| CN(C)[C@@H]1C(O)=C(C(=O)NCN2CCCC2)C(=O)[C@@]2(O)C(O)=C3C(=O)c4c(O)cccc4[C@@](C)(O)[C@H]3C[C@@H]12 [Rolitetracycline] | 120% | 72.8 |
| O=c1[nH]c(=O)n(C2CCCO2)cc1F (stereo unspecified) [Ftorafur] | 104% | – |
| O=c1[nH]c(=O)n(C2CCCO2)cc1F (stereo unspecified) | 88.4% | – |
| CC(NCCC(c1ccccc1)c1ccccc1)c1ccccc1 (stereo unspecified) [Fendiline hydrochloride] | 63.7% | – |
| CC(NCCC(c1ccccc1)c1ccccc1)c1ccccc1 (stereo unspecified) | 75.8% | – |
| Nc1nc2ccc(Cl)cc2c2nc(-c3ccco3)nn12 | 83.3% and 103% | – |
| NC(=O)[C@@H]1CCCN1 [L-Prolinamide] | – | 68.9 |
| CCC(C)N(C)C(=O)c1cc2ccccc2c(-c2ccccc2Cl)n1 (stereo unspecified) | 62.9% | – |
| COc1c2occc2c(OC)c2c(=O)cc(C)oc12 [Khellin] | 77.9% | 68.4 |
| COc1c2occc2c(OC)c2c(=O)cc(C)oc12 | 82.6% | – |
| C1CNCCN1 | 103% | – |
| COc1ccc2[nH]cc(CC(N)C(=O)O)c2c1 (racemic) [DL-5-Methoxytryptophan] | – | 50.7 |
| Nc1cc(C(Cl)=C(Cl)Cl)c(S(N)(=O)=O)cc1S(N)(=O)=O | 89.9 ± 5% | – |
| Nc1cc(C(Cl)=C(Cl)Cl)c(S(N)(=O)=O)cc1S(N)(=O)=O [Clorsulon] | 61.8% | – |
| CC[C@H](C)C(=O)O[C@H]1CCC=C2C=C[C@H](C)[C@H](CC[C@@H]3C[C@@H](O)CC(=O)O3)[C@H]21 [mevastatin] | 129% | – |
| CC[C@H](C)C(=O)O[C@H]1CCC=C2C=C[C@H](C)[C@H](CC[C@@H]3C[C@@H](O)CC(=O)O3)[C@H]21 [Mevastatin] | 122 ± 29% | – |
| CC[C@H](C)C(=O)O[C@H]1CCC=C2C=C[C@H](C)[C@H](CC[C@@H]3C[C@@H](O)CC(=O)O3)[C@H]21 | 97.9% | – |
